No constants are given. Whether binding was seen depends on the method and setting. Binding seen in cells or lysates may run through a third protein. These calls come from enrichment with a bait or labelling near it, and not all partners need be listed. Tags and fused reporters may be left off the sequences shown.
T1: biotin-tagged XPF (mouse (endogenous knock-in in MEFs)) (UniProt Q9QZD4)
T1 sequence (chain, biotin on the 15 aa tag (by the BirA ligase in vivo)): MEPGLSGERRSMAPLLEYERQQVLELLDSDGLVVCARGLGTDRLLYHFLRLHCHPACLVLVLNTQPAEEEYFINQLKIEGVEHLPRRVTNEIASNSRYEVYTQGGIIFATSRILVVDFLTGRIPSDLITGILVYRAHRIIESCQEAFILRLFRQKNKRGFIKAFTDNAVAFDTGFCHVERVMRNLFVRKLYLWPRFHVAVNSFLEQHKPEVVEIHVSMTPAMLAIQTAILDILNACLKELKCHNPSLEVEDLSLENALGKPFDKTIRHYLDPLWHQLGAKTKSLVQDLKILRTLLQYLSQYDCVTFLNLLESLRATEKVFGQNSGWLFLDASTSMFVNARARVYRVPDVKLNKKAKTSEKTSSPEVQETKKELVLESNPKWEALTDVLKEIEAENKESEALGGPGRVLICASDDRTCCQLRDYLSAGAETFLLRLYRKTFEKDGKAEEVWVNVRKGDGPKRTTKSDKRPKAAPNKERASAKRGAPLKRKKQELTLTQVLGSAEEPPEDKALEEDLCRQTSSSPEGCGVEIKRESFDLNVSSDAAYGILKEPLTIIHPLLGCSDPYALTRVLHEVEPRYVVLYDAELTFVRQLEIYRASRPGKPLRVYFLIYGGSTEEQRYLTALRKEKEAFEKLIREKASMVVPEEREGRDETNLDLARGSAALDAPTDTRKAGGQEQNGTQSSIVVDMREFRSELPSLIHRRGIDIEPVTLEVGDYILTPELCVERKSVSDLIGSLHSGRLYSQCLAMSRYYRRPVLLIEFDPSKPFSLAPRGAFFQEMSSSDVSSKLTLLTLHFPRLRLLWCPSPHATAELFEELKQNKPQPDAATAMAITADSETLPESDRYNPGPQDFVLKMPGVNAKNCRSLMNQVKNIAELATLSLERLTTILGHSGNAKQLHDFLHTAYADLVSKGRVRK


Target: T1, biotin-tagged XPF (mouse (endogenous knock-in in MEFs))
Assay: affinity purification with mass spectrometry

Row | Binder | binding
1 | XRN2 (protein, UniProt Q9DBR1 1-951) MGVPAFFRWLSRKYPSIIVNCVEEKPKECNGVKIPVDASKPNPNDVEFDNLYLDMNGIIHPCTHPEDKPAPKNEDEMMVAIFEYIDRLFNIVRPRRLLYMAIDGVAPRAKMNQQRSRRFRASKEGMEAAVEKQRVREEILAKGGFLPPEEIKERFDSNCITPGTEFMDNLAKCLRYYIADRLNNDPGWKNLTVILSDASAPGEGEHKIMDYIRRQRAQPNHDPNTHHCLCGADADLIMLGLATHEPNFTIIREEFKPNKPKPCALCNQFGHEVKDCEGLPREKKGKHDELADSLPCAEGEFIFLRLNVLREYLERELTMASLPFPFDVERSIDDWVFMCFFVGNDFLPHLPSLEIREGAIDRLVNIYKNVVHKTGGYLTESGYVNLQRVQMIMLAVGEVEDSIFKKRKDDEDSFRRRQKEKRKRMKRDQPAFTPSGILTPHALGSRNSPGCQVASNPRQAAYEMRMQRNSSPSISPNTSFASDGSPSPLGGIKRKAEDSDSEPEPEDNVRLWEAGWKQRYYKNKFDVDAADEKFRRKVVQSYVEGLCWVLRYYYQGCASWKWYYPFHYAPFASDFEGIADMSSEFEKGTKPFKPLEQLMGVFPAASGNFLPPTWRKLMSDPDSSIIDFYPEDFAIDLNGKKYAWQGVALLPFVDERRLRAALEEVYPDLTPEENRRNSLGGDVLFVGKLHPLRDFILELYQTGSTEPVDVPPELCHGIQGTFSLDEEAILPDQTVCSPVPMLRDLTQNTAVSINFKDPQFAEDYVFKAAMLPGARKPATVLKPGDWEKSSNGRQWKPQLGFNRDRRPVHLDQAAFRTLGHVTPRGSGTSVYTNTALPPANYQGNNYRPLLRGQAQIPKLMSNMRPQDSWRGPPPLFQQHRFERSVGAEPLLPWNRMIQNQNAAFQPNQYQMLGGPGGYPPRRDDHRGGRQGYPREGRKYPLPPPSGRYSWN | binds
2 | WDR75 (protein, UniProt Q3U821 1-830) MVEEGVRVVRCGGSRLNFRRAVFSVDSKYIFCVSGDFVKVYSTTTEECVHILHGHTDLVSGILVNPSNHLQLYSCSFDGTIKLWDYVDGILIKTFTIGPKLHAFFIPLHAEDSVFLTISKEEPDIFQLVSVKLPKSTSQDVEARQLTFVLDYINRSPKCIAFGNEGEYVAAVRDFYLSVYFFKKKKTCNFTLPSTKNKKNAKNKFTCVACHPKEDCIASGHMDGKIRLWRNFHSDQKYTYTCLHWHHDMVMDLAFTVTGTSLLSGGRECVLVEWRDGSEKNKEFLPRLGSSIEHISVSPAGDLFCTSHSDNKITVIHRNLDASAVIQGLVKDRSISTGLMVDPRTKALVLNGKPGHLQFYSLQGDKQLYNLDIIQQEYINDEGLTQTELTKAAFGCSGTWLATVEQRQENENELELQMKLWNYSKKTQGFVLNTKIAMPHDDHITALCFNNAESYEKPILVTASRDGHFKVWILTDDSDIYKKAIAWTCDFVGSYHKYQATNCCFSEDGSLLAVSFEEIVTIWDSQTWELKCTFCQRAGKIRHLCFGRLTCSKYLLGTTDNGILCCWNLLSCSIQWSAKLNVRVMEPDPYSDHVAAVAQSSAGSDLFVFKPSEPRPLYIQKNVSREEVQWGVFVPRDVPESFTSETHQWLNRSQFYFLTKSQSLLTFSTKSPEEKLTPTSKQLLAEESLPTTPFSFILGKHRQQQGAKLTETSENELVQLPLTENIPAITELLHTPAHVLPSASFLCSLFVNSLLLSKETKSAEEVPDDVDMEGNKESDDSDEEYDLTEKDKETNNNTDLGEDAIHQLSKSEEKELRKFRKVDYSWLTAL | binds

Source: publication doi:10.1101/2020.01.03.892703
